Measurements reported in PubChem BioAssay AID1259308 (NCATS, 2017)
Screen: 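Candidate targets for better recombinant protein yield in mammalian cells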 (primary screen). System: human HEK293 embryonic kidney cells stably expressing firefly luciferase (HEK-CMV-Luc2-Hygro). Reagents: single siRNA against human genes, 0.8 pmol siRNA per well. Duration: 72 h. Detection: 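Reporter luminescence and viable-cell signal on separate replicate plates, given as percent of non-targeting control and median/MAD z-scores, plus per-cell luciferase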. Reading the numbers: total luciferase, z-score and total luciferase, % of control: higher = more reporter protein produced; luciferase per cell, z-score: higher = more reporter output per viable cell; viable cells, % of control: higher = more viable cells. Active means: 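Active when the median/MAD z-score for overall luciferase is greater than 3; a gene was taken forward for validation with new siRNAs if at least two of its three siRNAs passed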. Calls: active = raised luciferase; inactive = no rise.
Here is a random part of about 59,000 reagents. Over the whole deposit, about 1,510 (2.6%) are marked active. 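Calls use total luciferase alone and ignore viability, so some active siRNAs may act by altering cell number.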 Reagents against one gene are numbered here.

The first 8 entries, to show the layout:
target	reagent no.	total luciferase, z-score	total luciferase, % of control	luciferase per cell, z-score	viable cells, % of control	Outcome
SYNGR1 (synaptogyrin 1)	1	-1.2	58	-0.924	82.7	inactive
SYNGR1 (synaptogyrin 1)	2	0.653	94.9	0.589	90.8	inactive
SYNGR1 (synaptogyrin 1)	3	0.816	98.1	0.307	101	inactive
NRIP2 (nuclear receptor interacting protein 2)	1	0.543	92.7	0.871	82.3	inactive
NRIP2 (nuclear receptor interacting protein 2)	2	0.303	87.9	0.371	89.1	inactive
NRIP2 (nuclear receptor interacting protein 2)	3	1.43	110	1.6	80.8	inactive
GRM2 (glutamate metabotropic receptor 2)	1	-1.34	55.2	0.702	51.3	inactive
GRM2 (glutamate metabotropic receptor 2)	2	-0.86	64.8	-1.62	111	inactive

Results, from the first entry:
target	reagent no.	total luciferase, z-score	total luciferase, % of control	luciferase per cell, z-score	viable cells, % of control	Outcome
SYNGR1 (synaptogyrin 1)	1	-1.2	58	-0.924	82.7	inactive
SYNGR1 (synaptogyrin 1)	2	0.653	94.9	0.589	90.8	inactive
SYNGR1 (synaptogyrin 1)	3	0.816	98.1	0.307	101	inactive
NRIP2 (nuclear receptor interacting protein 2)	1	0.543	92.7	0.871	82.3	inactive
NRIP2 (nuclear receptor interacting protein 2)	2	0.303	87.9	0.371	89.1	inactive
NRIP2 (nuclear receptor interacting protein 2)	3	1.43	110	1.6	80.8	inactive
GRM2 (glutamate metabotropic receptor 2)	1	-1.34	55.2	0.702	51.3	inactive
GRM2 (glutamate metabotropic receptor 2)	2	-0.86	64.8	-1.62	111	inactive
GRM2 (glutamate metabotropic receptor 2)	3	1.22	106	1.23	85.8	inactive
LRRC15 (leucine rich repeat containing 15)	1	3.53	152	2.14	96.8	active
LRRC15 (leucine rich repeat containing 15)	2	-2.6	30.1	-2.66	67.7	inactive
LRRC15 (leucine rich repeat containing 15)	3	2.1	124	1.53	92.2	inactive
UBALD1 (UBA like domain containing 1)	1	0.46	91	0.927	79.7	inactive
UBALD1 (UBA like domain containing 1)	2	-0.883	64.3	-0.432	80.5	inactive
UBALD1 (UBA like domain containing 1)	3	0.729	96.4	0.725	89	inactive
ASB9 (ankyrin repeat and SOCS box containing 9)	1	-0.592	70.1	0.404	70.4	inactive
ASB9 (ankyrin repeat and SOCS box containing 9)	2	0.197	85.8	0.175	91.5	inactive
ASB9 (ankyrin repeat and SOCS box containing 9)	3	3.54	152	3.02	76.9	active
SYCP3 (synaptonemal complex protein 3)	1	-0.8	66	1.06	55.8	inactive
SYCP3 (synaptonemal complex protein 3)	2	1.01	102	1.37	79.4	inactive
SYCP3 (synaptonemal complex protein 3)	3	0.492	91.7	0.692	85.4	inactive
APOBEC3D (apolipoprotein B mRNA editing enzyme catalytic subunit 3D)	1	-1.07	60.6	-0.952	87	inactive
APOBEC3D (apolipoprotein B mRNA editing enzyme catalytic subunit 3D)	2	-1.33	55.5	-1.14	83.8	inactive
APOBEC3D (apolipoprotein B mRNA editing enzyme catalytic subunit 3D)	3	0.0605	83.1	0.175	88.7	inactive
SERPINA11 (serpin family A member 11)	1	0.352	88.9	-0.537	114	inactive
SERPINA11 (serpin family A member 11)	2	-0.571	70.5	0.627	66.8	inactive
SERPINA11 (serpin family A member 11)	3	-0.671	68.5	-0.611	90	inactive
NUMBL (NUMB like endocytic adaptor protein)	1	0.126	84.4	-0.248	101	inactive
NUMBL (NUMB like endocytic adaptor protein)	2	2.04	122	1.45	93.4	inactive
NUMBL (NUMB like endocytic adaptor protein)	3	-0.284	76.2	-0.532	98	inactive
AGBL1 (AGBL carboxypeptidase 1)	1	-2.11	39.9	-1.04	58.5	inactive
AGBL1 (AGBL carboxypeptidase 1)	2	-1.36	54.7	-1.15	82.9	inactive
AGBL1 (AGBL carboxypeptidase 1)	3	-1.93	43.4	-2.05	83.1	inactive
PTP4A2 (protein tyrosine phosphatase 4A2)	1	2.21	126	2.09	81.2	inactive
PTP4A2 (protein tyrosine phosphatase 4A2)	2	-0.876	64.5	-1.33	102	inactive
PTP4A2 (protein tyrosine phosphatase 4A2)	3	2.16	125	0.878	111	inactive
RPS26P35 (ribosomal protein S26 pseudogene 35)	1	-1.95	43	-0.646	57	inactive
RPS26P35 (ribosomal protein S26 pseudogene 35)	2	-2.72	27.8	-1.74	49.2	inactive
RPS26P35 (ribosomal protein S26 pseudogene 35)	3	-1.85	45.1	-0.171	52.7	inactive
UBXN10 (UBX domain protein 10)	1	-0.257	76.8	-0.281	92.4	inactive
UBXN10 (UBX domain protein 10)	2	0.481	91.5	0.453	90.7	inactive
UBXN10 (UBX domain protein 10)	3	-0.323	75.5	-0.486	95.8	inactive
ZBTB6 (zinc finger and BTB domain containing 6)	1	-0.334	75.3	-0.236	89.5	inactive
ZBTB6 (zinc finger and BTB domain containing 6)	2	-1.62	49.6	-1.72	87.2	inactive
ZBTB6 (zinc finger and BTB domain containing 6)	3	-1.1	60	-0.934	85.7	inactive
CHMP5 (charged multivesicular body protein 5)	1	-0.657	68.8	-1.19	105	inactive
CHMP5 (charged multivesicular body protein 5)	2	-0.422	73.5	-0.376	90.7	inactive
CHMP5 (charged multivesicular body protein 5)	3	1.63	114	0.814	103	inactive
COL21A1 (collagen type XXI alpha 1 chain)	1	-1.5	52	-2.09	101	inactive
COL21A1 (collagen type XXI alpha 1 chain)	2	-1.24	57.3	-1.71	100	inactive
COL21A1 (collagen type XXI alpha 1 chain)	3	-0.694	68.1	-1.28	107	inactive
FAM181B (family with sequence similarity 181 member B)	1	0.435	90.5	0.889	80.1	inactive
FAM181B (family with sequence similarity 181 member B)	2	-0.752	66.9	-0.358	82.2	inactive
FAM181B (family with sequence similarity 181 member B)	3	1.41	110	1.89	74.6	inactive
KIF18B (kinesin family member 18B)	1	2.49	131	3.06	65.6	inactive
KIF18B (kinesin family member 18B)	2	-1.47	52.7	-1.18	80.3	inactive
KIF18B (kinesin family member 18B)	3	-0.142	79.1	1.46	60.2	inactive
ANP32B (acidic nuclear phosphoprotein 32 family member B)	1	-0.145	79	-0.206	93.2	inactive
ANP32B (acidic nuclear phosphoprotein 32 family member B)	2	-0.571	70.5	-1.2	108	inactive
ANP32B (acidic nuclear phosphoprotein 32 family member B)	3	0.808	98	0.153	105	inactive
OR10G3 (olfactory receptor family 10 subfamily G member 3)	1	0.983	101	1.24	81.8	inactive
OR10G3 (olfactory receptor family 10 subfamily G member 3)	2	0.761	97	0.645	91.5	inactive
OR10G3 (olfactory receptor family 10 subfamily G member 3)	3	2.36	129	1.7	92	inactive
PRELID3A (PRELI domain containing 3A)	1	1.05	103	1.43	78.8	inactive
PRELID3A (PRELI domain containing 3A)	2	-0.796	66.1	-0.427	82.6	inactive
PRELID3A (PRELI domain containing 3A)	3	1.42	110	1.34	86.5	inactive
LAMTOR5 (late endosomal/lysosomal adaptor, MAPK and MTOR activator 5)	1	-0.273	76.5	-0.287	92.1	inactive
LAMTOR5 (late endosomal/lysosomal adaptor, MAPK and MTOR activator 5)	2	1.59	114	1.22	92.1	inactive
LAMTOR5 (late endosomal/lysosomal adaptor, MAPK and MTOR activator 5)	3	-1.49	52.2	-0.79	71.8	inactive
ZNF20 (zinc finger protein 20)	1	-0.22	77.5	0.779	70.5	inactive
ZNF20 (zinc finger protein 20)	2	-0.211	77.7	0.805	70.2	inactive
ZNF20 (zinc finger protein 20)	3	-0.662	68.7	-0.846	96	inactive
NHLH1 (nescient helix-loop-helix 1)	1	3.47	151	2.88	79.1	active
NHLH1 (nescient helix-loop-helix 1)	2	0.923	100	2.3	61.1	inactive
NHLH1 (nescient helix-loop-helix 1)	3	0.338	88.6	-0.0389	100	inactive
